# Results of single-concentration screens

From ChEMBL document CHEMBL3988442, “University of Dundee, Small-Polar-MMV Screening Library” (2021).

Mtb glucose medium: 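Whole-cell growth test on Mycobacterium tuberculosis, read after 3 days in glucose-containing 7H9 medium; the read-out is not stated. Tested at 50 µM. Higher reads as more growth inhibition (inferred: compounds with an IC50 in retests scored well above the rest). About 69,000 compounds were tested under these conditions; 1.1% (about 760) showed 50% or more at least once.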
Mtb cholesterol medium: 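Growth of Mycobacterium tuberculosis over 4 days (cholesterol / DPPC medium with tyloxapol); the read-out is not stated. Compounds at 50 µM. The record gives no direction; compounds that gave an IC50 in retests scored well above the rest, so higher reads as more growth inhibition. About 69,000 compounds were tested under these conditions; 0.54% (about 370) showed 50% or more at least once.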

Results are given as percent effect.
How 0% and 100% were set is not recorded. Most values in the screen are low, and negative values occur.
The compounds are a random part of those screened.
Two or more numbers in one place are separate tests of the same structure; such repeats can differ widely.

compound	Mtb glucose medium	Mtb cholesterol medium
Cc1csc(C2CCCCN2C(=O)CCCn2cncn2)n1 (centres undefined)	-1.295	8.7
Cn1ccnc1CN1CCC2(CCC(=O)N2CCN2CCCC2)CC1.O=C(O)C(F)(F)F.O=C(O)C(F)(F)F	-7.259	-7.134
O=C(Nc1ccc(OC2CCCC2)cc1)C1CCCN1c1nccs1 (centres undefined)	10.29	-19.22
CNS(=O)(=O)c1csc(C(=O)N(C)Cc2sccc2C)c1	11.39	8.412
O=c1[nH]nc2c(S(=O)(=O)N3CCCCCC3)cccn12	12.55	12.12
Cc1cnn(CC2CCCN2C(=O)c2ccc(C(N)=O)cn2)c1 (centres undefined)	-11.44	10.38
CCN(CC)c1ccc(CNC(=O)c2ccccn2)cn1	-50.2	-39.65
O=C(c1cncs1)N1CCOCC(Cc2ccccn2)C1 (centres undefined)	-8.059	1.106 and 6.243
[H][C@]12CN(C(=O)c3cc(C)n(C)c3C)CC[C@@]1(O)CCN(S(C)(=O)=O)C2	-8.821	-16.67
CCc1noc(C(C)N(C)CC(=O)Nc2ccccc2Cl)n1 (centres undefined)	10.52	5.171
O=C(O)C(F)(F)F.[H][C@@]12CCN(Cc3ccoc3)[C@]1([H])CC[C@H](C(=O)Nc1cnccn1)O2	-39.71	-31.68
CCn1ccc(-c2cc(NCCCOc3ccccc3C)nc(C)n2)n1	36.6	19.35
Cc1c(NCCOCC(F)(F)F)cccc1C(=O)N1CCCC1	-5.617	-1.114
Cc1ccc(NC2(C(=O)NCCCN)CCCC2)cc1	-0.3665	7.452 and 4.432
CC(=O)NCC(=O)N1Cc2nccn2CC(CN2CCCC2=O)C1 (centres undefined)	-1.296	-21.62
CN1CCCN(S(C)(=O)=O)c2cc(F)ccc21	-3.876	-6.357
CCC1CN(C(=O)NCCOc2ccc3c(c2)OCO3)CCO1 (centres undefined)	-3.573	-14.54
Cc1noc(C)c1CC(=O)N1CCCC(n2ccnc2C)C1 (centres undefined)	5.055	12.77
Cl.NC(CC1CCCCC1)c1ccccc1 (centres undefined)	-10.08	-6.834
O=C(NCCCO)C1CC(=O)N(c2n[nH]c3cccc(F)c23)C1 (centres undefined)	16.92	10.4
CC(=O)N1CCC2(CC1)CN(C(=O)c1cccc3[nH]ccc13)C2	-10.34	-7.108
CC(C)c1nnc(C2CCN(CC(=O)Nc3cccnc3)CC2)o1	-1.07	-5.892
NC(=O)N1CC[C@H](O)[C@@H]1Cc1cccnc1.O=C(O)C(F)(F)F	3.941	-1.487
CCN(CC)CCNC(=O)CCc1c(C)nn(-c2ccc(Cl)cc2)c1C	-4.207	-6.688
COCCN1C[C@@H](C)[C@@]2(COCCN(C(=O)c3cccc(C)n3)C2)C1.O=C(O)C(F)(F)F.O=C(O)C(F)(F)F	-2.844 and 11.55	5.478
Cc1nc(CNCc2ccc(N3CCN(C)CC3)nc2)cs1	5.418	-1.598
Cc1nnc(CN2CCCC(c3noc(C4CC4)n3)C2)o1 (centres undefined)	2.142	-24.67
[H][C@]12CC[C@@]3(N=C(c4ccccc4)NC3=O)[C@@]1([H])CN(Cc1ccncc1)C2	1.685 and -1.693	9.309
CN(Cc1ccccc1C#N)C1CCN(CCc2ccccn2)CC1	3.42 and -35.87	-3.243
Cc1cc(CNC(=O)Nc2cccc(COCCOC(C)C)c2)no1	9.074 and 14.26	3.16
CCS(=O)(=O)N1CCC2(CN(c3cccc(C)n3)C2)C1.O=C(O)C(F)(F)F	1.019 and 4.383	2.795
Cc1nonc1C(=O)N1CCCC(c2ncncc2-c2ccncc2)C1 (centres undefined)	-13.51	-18.18
[H][C@]12CCC[C@@]1(COC)CN(C(=O)Cc1ccco1)C2	15.75	7.036
O=C(O)C(F)(F)F.O=C(O)C(F)(F)F.[H][C@@]12CN(Cc3ccncc3)C[C@]1([H])C(=O)N(c1ccsc1)C2	-3.115	-5.835
CC(=O)N1CCn2c(nnc2C2CCCCN2Cc2ccccc2Cl)C1 (centres undefined)	-13.11	-8.377
Cc1cccc(C(C)CNS(=O)(=O)CCCC#N)c1 (centres undefined)	17.71	14.43
CNc1ncccc1CN1CCCCC1c1cc(C)n2ccnc2n1 (centres undefined)	6.554	-19.91
Cc1ccc(CNC(C)c2cc(F)ccc2N2CCN(C)CC2)o1 (centres undefined)	18.87 and 34.11	20.14
O=S(=O)(Cc1ccccc1F)NC(CO)c1ccco1 (centres undefined)	-5.504	-19.13
CCOc1cc(Cl)ccc1CNC(=O)N1CCCC(CO)C1 (centres undefined)	-2.637	17.26
CC(C)OCC(=O)N1CCCN(Cc2ccc(C#N)cc2)CC1	-8.277	-22.63
CN1N=C(C(=O)N2CCCC(n3cccn3)C2)CCC1=O (centres undefined)	-33.64	-18.81
CCc1c(O)nc(SCC(=O)N(CC)CC)n(C(C)CC)c1=O (centres undefined)	19.84	-0.4668

Repeated from the top, 4 entries:

compound	Mtb glucose medium	Mtb cholesterol medium
Cc1csc(C2CCCCN2C(=O)CCCn2cncn2)n1 (centres undefined)	-1.295	8.7
Cn1ccnc1CN1CCC2(CCC(=O)N2CCN2CCCC2)CC1.O=C(O)C(F)(F)F.O=C(O)C(F)(F)F	-7.259	-7.134
O=C(Nc1ccc(OC2CCCC2)cc1)C1CCCN1c1nccs1 (centres undefined)	10.29	-19.22
CNS(=O)(=O)c1csc(C(=O)N(C)Cc2sccc2C)c1	11.39	8.412